Measurements: US20080255217A1, “PREVENTIVE OR THERAPEUTIC AGENT FOR CARDIAC DYSFUNCTION OR MYOCARDIAL INJURY CAUSED BY ISCHEMIA OR ISCHEMIA REPERFUSION” (SANWA KAGAKU KENKYUSHO CO., LTD., priority 2005, published 2008)
At least one structure is not confirmed: it was looked up by name or label, or the drawing left a doubt.

Legend:
[1] = system: hearts of wild-type mice (BDF-1); assay: Isolated heart (Langendorff) ischemia-reperfusion, wild-type mice; set-up: species or system mouse
Protocol: In an experimental test, hearts of 7 to 9 week-old wild-type mice (BDF-1) and hAR-TG were used. From these mice, hearts were isolated under anesthesia of pentobarbital 50 mg/kg i.p., and were placed in ice-cold saline. The isolated hearts were perfused for 20 minutes at a perfusion pressure of 70 mmHg with the Langendorff apparatus (Model IH-1 Type 844, HUGO SACHS ELEKTRONIK, Germany), and was stabilized. Thereafter, after perfusion for 30 minutes under heart function measurement, perfusion solution was completely stopped for 30 minutes, and reperfusion was performed for further 60 minutes, thereby, ischemia-ischemia reperfusion loading was performed. As perfusion solution, Krebs-Henseleit (KH) buffer containing 5.55 mM glucose and 2 mM Na-pyruvate was used. Cardiac performance was assessed by a left ventricular end-diastolic pressure (LVEDP) and peak first derivative of left ventricular systolic pressure (+dP/dt max). These were measured with a pressure transducer connected with a balloon inserted into a left ventricle in condition of hearts paced at 3 volt, 420 beats/min with an electrode placed on the top of a right ventricle, and data thereof were calculated with a four cannel recording device (OMUNIACE RT-3300, NEC, Japan). An AR inhibitor was added to the perfusion solution for 10 minutes from 15 minutes before global ischemia initiation as shown in FIG. 1. […]

[2] = system: hearts of human aldose reductase (AR) transgenic mice (hAR-TG); assay: Isolated heart (Langendorff) ischemia-reperfusion, hAR-TG mice; set-up: species or system mouse; settings: 10 μM
Excerpt: In the present invention, not only wild-type mice, but also human aldose reductase (AR) transgenic mice (hAR-TG) which was produced so as to overexpress human-type AR genetically in a mouse, were used for predicting effectiveness in humans which is significant for the development of such a therapeutic agent. As a control for comparison with SNK-860, epalrestat and zopolrestat were used.
In an experimental test, hearts of 7 to 9 week-old wild-type mice (BDF-1) and hAR-TG were used. From these mice, hearts were isolated under anesthesia of pentobarbital 50 mg/kg i.p., and were placed in ice-cold saline. The isolated hearts were perfused for 20 minutes at a perfusion pressure of 70 mmHg with the Langendorff apparatus (Model IH-1 Type 844, HUGO SACHS ELEKTRONIK, Germany), and was stabilized. Thereafter, after perfusion for 30 minutes under heart function measurement, perfusion solution was completely stopped for 30 minutes, and reperfusion was performed for further 60 minutes, thereby, ischemia-ischemia reperfusion loading was performed. As perfusion solution, Krebs-Henseleit (KH) buffer containing 5.55 mM glucose and 2 mM Na-pyruvate was used. Cardiac performance was assessed by a left ventricular end-diastolic pressure (LVEDP) and peak first derivative of left ventricular systolic pressure (+dP/dt max). These were measured with a pressure transducer connected with a balloon inserted into a left ventricle in condition of hearts paced at 3 volt, 420 beats/min with an electrode placed on the top of a right ventricle, and data thereof were calculated with a four cannel recording device (OMUNIACE RT-3300, NEC, Japan). An AR inhibitor was added to the perfusion solution for 10 minutes from 15 minutes before global ischemia initiation as shown in FIG. 1. Each inhibitor (1 μM SNK-860: SNK, 1-10 μM zopolrestat: ZOP, 10 μM epalrestat: EPA) was dissolved in DMSO, and a DMSO final concentration in a perfusion solution was adjusted to 0.05%. DMSO of the same concentration was also added to a perfusion solution of a control experiment. Cardiomyocytes injury was determined using as an index the release of total creatinine kinase (CK) for 60-min reperfusion, and a myocardial ATP content after 60 minutes reperfusion was determined by the bioluminescence method (Sigma-Aldrich, St. Louis, Mo.) using luciferase, respectively.
For hAR-TG mice, littermates (LM: hAR non-expression litter mouse) were used as control mice without drug treatment.

Q: Which results are given for CC(/C=C1\SC(=S)N(CC(=O)O)C1=O)=C\c1ccccc1 [epalrestat]?
A: deterioration of the cardiac performance and destruction of cardiac muscle due to an ischemia reperfusion injury in a heart ([1]; discussion summary of wild-type and hAR-TG results, high concentration): only the partial effect; release of CK from cardiomyocytes ([1]; wild-type mice, isolated heart, 60-min reperfusion, 10 μM, FIG. 4): significant reduction; increase in LVEDP ([2]; FIG. 5): significant improvement; reduction in +dP/dt max ([2]; FIG. 6): significant improvement; release of CK into a perfusion solution ([2]; FIG. 7): improvement effect; decrease in a myocardial ATP content ([2]; after 60 minutes reperfusion, FIG. 8): improvement effect
